Test results: patent US20220265769A1, “COMPOSITIONS AND METHODS OF TREATMENT FOR BREAST CANCER INVOLVING A NOVEL CAPER?-MLL1 COMPLEX” (Geisinger Health, priority 2019, published 2022)
These are yes or no findings as the source states them, for the method shown. Binding seen in cells or lysates may run through a third protein. Some entries that bind do so weakly or less than the wild type. Tags and fused reporters may be left off the sequences shown. Blank lines part the entries; values can stand above or below the binder they belong to.

By UniProt entry, the sequences of proteins in these tests, tags left out.
UniProt Q9UBL3: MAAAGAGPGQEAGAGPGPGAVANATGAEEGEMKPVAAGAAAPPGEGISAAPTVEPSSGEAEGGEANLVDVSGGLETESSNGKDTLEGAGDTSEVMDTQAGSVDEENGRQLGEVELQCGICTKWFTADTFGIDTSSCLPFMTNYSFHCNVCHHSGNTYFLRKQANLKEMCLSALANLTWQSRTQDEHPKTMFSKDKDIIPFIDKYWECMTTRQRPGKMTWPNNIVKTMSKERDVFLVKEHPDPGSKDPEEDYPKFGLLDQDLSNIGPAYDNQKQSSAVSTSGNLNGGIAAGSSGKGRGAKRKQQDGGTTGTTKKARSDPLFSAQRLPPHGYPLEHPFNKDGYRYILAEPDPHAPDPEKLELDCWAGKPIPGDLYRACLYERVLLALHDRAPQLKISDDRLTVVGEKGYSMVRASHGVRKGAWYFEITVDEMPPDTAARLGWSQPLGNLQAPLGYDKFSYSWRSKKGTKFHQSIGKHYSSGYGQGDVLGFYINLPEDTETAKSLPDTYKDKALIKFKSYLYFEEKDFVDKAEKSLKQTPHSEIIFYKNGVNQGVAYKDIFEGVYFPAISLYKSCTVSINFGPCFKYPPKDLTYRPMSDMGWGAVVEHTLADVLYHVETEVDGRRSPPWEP
UniProt Q03164: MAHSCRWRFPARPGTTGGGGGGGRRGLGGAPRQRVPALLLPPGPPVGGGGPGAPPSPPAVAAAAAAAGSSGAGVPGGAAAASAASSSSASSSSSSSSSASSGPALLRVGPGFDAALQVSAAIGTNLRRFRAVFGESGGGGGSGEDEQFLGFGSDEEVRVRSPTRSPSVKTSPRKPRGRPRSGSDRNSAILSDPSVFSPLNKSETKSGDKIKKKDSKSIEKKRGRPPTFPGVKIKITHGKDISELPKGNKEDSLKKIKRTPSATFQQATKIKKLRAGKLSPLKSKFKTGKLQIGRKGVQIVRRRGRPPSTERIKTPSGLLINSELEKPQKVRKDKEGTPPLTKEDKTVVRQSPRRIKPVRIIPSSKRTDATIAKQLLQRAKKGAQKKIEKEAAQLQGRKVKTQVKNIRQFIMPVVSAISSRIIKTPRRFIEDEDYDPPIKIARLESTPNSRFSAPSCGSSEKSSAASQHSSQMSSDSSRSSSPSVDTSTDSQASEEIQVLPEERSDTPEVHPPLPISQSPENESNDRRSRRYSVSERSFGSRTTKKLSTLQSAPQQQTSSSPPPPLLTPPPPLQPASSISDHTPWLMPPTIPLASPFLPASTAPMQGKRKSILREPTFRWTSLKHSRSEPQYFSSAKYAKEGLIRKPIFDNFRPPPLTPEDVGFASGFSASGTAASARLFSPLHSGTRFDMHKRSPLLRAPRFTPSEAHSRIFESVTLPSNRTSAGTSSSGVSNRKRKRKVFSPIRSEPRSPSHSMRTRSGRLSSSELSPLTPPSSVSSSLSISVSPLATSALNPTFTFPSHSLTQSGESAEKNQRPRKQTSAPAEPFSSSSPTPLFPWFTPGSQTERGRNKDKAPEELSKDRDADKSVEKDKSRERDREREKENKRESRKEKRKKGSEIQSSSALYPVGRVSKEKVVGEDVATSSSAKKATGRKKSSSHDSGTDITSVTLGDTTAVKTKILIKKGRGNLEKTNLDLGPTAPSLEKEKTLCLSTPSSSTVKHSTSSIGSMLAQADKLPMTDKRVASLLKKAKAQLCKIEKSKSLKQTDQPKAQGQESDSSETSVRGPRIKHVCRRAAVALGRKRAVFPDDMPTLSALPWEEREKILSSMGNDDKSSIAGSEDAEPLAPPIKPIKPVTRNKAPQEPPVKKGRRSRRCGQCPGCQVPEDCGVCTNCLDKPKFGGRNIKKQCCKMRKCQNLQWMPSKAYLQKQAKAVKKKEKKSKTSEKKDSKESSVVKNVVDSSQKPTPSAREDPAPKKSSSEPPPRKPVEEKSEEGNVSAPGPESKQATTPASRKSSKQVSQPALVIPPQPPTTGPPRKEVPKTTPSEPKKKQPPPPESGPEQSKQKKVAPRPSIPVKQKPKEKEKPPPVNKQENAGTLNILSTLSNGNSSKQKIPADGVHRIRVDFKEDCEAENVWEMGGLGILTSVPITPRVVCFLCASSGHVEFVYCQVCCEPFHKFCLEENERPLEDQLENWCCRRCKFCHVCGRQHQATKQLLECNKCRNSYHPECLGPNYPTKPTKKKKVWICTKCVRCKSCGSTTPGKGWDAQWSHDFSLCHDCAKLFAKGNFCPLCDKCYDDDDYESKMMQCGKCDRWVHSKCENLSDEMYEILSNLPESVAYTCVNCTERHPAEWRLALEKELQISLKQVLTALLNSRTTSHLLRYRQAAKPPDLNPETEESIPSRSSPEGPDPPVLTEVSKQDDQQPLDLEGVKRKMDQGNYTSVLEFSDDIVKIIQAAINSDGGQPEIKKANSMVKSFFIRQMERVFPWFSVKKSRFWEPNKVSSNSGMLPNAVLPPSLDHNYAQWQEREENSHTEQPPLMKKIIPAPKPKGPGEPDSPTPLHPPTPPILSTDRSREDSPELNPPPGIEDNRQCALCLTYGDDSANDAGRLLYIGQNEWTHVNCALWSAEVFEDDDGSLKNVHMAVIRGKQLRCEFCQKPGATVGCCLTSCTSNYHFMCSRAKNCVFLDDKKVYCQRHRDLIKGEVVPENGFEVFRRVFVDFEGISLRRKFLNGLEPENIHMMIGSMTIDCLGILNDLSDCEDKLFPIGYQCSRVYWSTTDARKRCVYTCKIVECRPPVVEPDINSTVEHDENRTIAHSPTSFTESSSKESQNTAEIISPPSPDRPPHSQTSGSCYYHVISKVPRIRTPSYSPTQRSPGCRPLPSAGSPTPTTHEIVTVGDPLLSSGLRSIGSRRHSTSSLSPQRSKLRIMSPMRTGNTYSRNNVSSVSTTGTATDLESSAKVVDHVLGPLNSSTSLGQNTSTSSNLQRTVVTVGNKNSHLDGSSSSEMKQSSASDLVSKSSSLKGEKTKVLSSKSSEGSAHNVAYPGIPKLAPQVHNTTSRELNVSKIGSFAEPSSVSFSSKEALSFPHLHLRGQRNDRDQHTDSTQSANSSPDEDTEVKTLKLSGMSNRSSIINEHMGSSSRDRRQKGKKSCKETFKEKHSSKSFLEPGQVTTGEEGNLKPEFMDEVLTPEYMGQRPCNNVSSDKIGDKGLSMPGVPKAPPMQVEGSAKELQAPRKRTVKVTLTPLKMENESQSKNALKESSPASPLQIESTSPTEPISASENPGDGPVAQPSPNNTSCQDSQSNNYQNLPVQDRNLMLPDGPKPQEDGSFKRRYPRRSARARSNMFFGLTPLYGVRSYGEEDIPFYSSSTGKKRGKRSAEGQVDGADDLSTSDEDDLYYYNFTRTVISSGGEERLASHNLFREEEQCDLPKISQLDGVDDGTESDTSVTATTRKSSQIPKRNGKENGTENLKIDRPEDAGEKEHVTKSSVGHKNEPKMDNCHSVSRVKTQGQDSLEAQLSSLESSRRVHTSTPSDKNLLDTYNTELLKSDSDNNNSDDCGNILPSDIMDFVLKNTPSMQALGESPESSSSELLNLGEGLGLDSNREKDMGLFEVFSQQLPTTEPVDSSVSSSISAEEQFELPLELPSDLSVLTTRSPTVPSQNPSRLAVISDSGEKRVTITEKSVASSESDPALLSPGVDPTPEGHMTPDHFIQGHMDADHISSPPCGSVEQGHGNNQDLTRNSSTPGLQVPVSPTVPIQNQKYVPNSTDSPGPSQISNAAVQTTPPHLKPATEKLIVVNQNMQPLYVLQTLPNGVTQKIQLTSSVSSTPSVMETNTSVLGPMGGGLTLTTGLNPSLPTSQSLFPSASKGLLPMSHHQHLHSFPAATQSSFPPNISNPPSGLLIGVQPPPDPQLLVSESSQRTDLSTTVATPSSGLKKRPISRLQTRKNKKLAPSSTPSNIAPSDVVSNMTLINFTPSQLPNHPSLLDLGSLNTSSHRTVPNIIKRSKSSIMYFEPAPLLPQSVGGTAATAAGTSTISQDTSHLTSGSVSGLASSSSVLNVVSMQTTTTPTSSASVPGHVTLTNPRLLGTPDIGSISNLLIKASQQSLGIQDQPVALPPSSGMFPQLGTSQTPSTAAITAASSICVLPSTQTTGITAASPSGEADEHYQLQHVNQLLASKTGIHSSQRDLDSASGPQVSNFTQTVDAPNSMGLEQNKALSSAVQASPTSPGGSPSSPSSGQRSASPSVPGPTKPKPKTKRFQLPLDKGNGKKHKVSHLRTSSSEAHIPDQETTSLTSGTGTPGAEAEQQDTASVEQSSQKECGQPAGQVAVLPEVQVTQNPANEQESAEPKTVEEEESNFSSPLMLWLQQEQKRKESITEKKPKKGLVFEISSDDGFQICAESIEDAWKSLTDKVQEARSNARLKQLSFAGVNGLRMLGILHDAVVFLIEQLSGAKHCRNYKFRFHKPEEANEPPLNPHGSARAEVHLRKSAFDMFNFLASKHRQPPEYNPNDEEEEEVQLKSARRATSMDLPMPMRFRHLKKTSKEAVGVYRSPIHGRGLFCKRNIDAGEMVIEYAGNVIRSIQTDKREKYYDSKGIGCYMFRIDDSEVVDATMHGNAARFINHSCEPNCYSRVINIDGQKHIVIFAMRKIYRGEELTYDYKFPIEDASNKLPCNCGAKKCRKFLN
UniProt Q15291: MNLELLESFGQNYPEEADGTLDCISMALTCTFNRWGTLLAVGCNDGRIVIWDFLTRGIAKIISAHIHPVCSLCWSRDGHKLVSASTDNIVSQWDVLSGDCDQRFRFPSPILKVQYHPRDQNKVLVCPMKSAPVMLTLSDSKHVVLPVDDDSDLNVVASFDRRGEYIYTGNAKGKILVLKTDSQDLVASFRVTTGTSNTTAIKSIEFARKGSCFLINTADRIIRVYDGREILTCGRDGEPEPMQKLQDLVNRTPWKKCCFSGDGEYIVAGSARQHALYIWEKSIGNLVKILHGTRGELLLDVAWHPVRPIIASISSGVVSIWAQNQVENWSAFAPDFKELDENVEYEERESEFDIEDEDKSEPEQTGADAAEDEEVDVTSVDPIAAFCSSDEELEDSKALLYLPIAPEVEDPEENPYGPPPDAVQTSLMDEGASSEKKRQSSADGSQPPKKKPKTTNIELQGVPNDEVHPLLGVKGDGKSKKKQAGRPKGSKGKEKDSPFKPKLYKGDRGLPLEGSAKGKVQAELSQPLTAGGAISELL

Key:
ASH2L (human) [1] = target: ASH2L (human) (UniProt Q9UBL3); experiment: anti-myc pulldown of isolated domains in heterologous cells
[2] = target: Mixed Lineage Leukemia 1 (MLL1) (human) (UniProt Q03164); experiment: as above
RbBP5 (human) [3] = target: RbBP5 (human) (UniProt Q15291); experiment: as above
ASH2L (human) [4] = target: ASH2L (human) (UniProt Q9UBL3); experiment: anti-myc pulldown, HEK293 lysate after overexpression of domains
[5] = target: Mixed Lineage Leukemia 1 (MLL1) (human) (UniProt Q03164); experiment: as above
RbBP5 (human) [6] = target: RbBP5 (human) (UniProt Q15291); experiment: as above
ASH2L (human) [7] = target: ASH2L (human) (UniProt Q9UBL3); experiment: GST pulldown with purified domains and T47D lysate
[8] = target: Mixed Lineage Leukemia 1 (MLL1) (human) (UniProt Q03164); experiment: GST pulldown with purified domains and T47D lysate
RbBP5 (human) [9] = target: RbBP5 (human) (UniProt Q15291); experiment: GST pulldown with purified domains and T47D lysate
ASH2L (human) [10] = target: ASH2L (human) (UniProt Q9UBL3); experiment: GST pulldown with purified CAPERα domains and T47D nuclear lysate
[11] = target: Mixed Lineage Leukemia 1 (MLL1) (human) (UniProt Q03164); experiment: as above
RbBP5 (human) [12] = target: RbBP5 (human) (UniProt Q15291); experiment: as above

binding (ASH2L (human) [1]): binds | binding [2]: binds | binding (RbBP5 (human) [3]): binds | binding (ASH2L (human) [4]): binds | binding [5]: binds | binding (RbBP5 (human) [6]): binds
B1: myc-tagged CAPERα RRM3 domain (protein, UniProt Q14498 445-508, looked up, not shown: small tags and cut ends)
chain: EIKDDVIEECNKHGGVIHIYVDKNSAQGNVYVKCPSIAAAIAAVNALHGRWFAGKMITAAYVPL

binding (ASH2L (human) [7]): binds | binding [8]: binds | binding (RbBP5 (human) [9]): binds | binding (ASH2L (human) [10]): binds | binding [11]: binds | binding (RbBP5 (human) [12]): binds
B2: purified GST-fusion RRM3 domain of CAPERα (protein, UniProt Q14498 445-508, looked up, not shown: a dimerising Fc or GST)
chain: B1 chain
